This is one part of the list.

The chains behind the UniProt entries cited, without tags or fusion partners. Where a name states a change or a piece, a line headed by the entry shows the natural chain unless it says otherwise.
UniProt P25685, whole entry, looked up: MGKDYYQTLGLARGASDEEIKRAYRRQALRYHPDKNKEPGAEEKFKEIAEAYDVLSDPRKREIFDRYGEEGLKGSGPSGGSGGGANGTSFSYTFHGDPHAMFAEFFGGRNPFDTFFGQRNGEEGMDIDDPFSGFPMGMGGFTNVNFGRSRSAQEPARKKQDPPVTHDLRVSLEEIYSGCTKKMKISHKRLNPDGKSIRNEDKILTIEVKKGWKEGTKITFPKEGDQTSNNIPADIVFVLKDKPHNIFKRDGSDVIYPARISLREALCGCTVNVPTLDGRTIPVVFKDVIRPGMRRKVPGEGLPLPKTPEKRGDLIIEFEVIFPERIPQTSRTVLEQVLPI
UniProt Q5JPH6: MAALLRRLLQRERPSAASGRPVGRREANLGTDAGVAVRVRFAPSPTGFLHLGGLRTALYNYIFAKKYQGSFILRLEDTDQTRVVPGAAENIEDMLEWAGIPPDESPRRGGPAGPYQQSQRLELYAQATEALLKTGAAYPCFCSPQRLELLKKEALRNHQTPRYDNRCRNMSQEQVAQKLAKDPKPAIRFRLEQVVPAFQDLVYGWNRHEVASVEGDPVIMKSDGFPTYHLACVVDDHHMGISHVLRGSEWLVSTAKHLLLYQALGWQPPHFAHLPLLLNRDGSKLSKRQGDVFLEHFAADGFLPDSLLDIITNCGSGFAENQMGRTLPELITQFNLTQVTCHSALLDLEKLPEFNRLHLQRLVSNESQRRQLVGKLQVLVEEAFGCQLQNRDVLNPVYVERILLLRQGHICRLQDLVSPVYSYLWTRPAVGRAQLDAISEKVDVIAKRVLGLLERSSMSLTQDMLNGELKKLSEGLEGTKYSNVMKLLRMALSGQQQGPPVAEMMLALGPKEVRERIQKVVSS
UniProt Q5VYK3, whole entry, looked up: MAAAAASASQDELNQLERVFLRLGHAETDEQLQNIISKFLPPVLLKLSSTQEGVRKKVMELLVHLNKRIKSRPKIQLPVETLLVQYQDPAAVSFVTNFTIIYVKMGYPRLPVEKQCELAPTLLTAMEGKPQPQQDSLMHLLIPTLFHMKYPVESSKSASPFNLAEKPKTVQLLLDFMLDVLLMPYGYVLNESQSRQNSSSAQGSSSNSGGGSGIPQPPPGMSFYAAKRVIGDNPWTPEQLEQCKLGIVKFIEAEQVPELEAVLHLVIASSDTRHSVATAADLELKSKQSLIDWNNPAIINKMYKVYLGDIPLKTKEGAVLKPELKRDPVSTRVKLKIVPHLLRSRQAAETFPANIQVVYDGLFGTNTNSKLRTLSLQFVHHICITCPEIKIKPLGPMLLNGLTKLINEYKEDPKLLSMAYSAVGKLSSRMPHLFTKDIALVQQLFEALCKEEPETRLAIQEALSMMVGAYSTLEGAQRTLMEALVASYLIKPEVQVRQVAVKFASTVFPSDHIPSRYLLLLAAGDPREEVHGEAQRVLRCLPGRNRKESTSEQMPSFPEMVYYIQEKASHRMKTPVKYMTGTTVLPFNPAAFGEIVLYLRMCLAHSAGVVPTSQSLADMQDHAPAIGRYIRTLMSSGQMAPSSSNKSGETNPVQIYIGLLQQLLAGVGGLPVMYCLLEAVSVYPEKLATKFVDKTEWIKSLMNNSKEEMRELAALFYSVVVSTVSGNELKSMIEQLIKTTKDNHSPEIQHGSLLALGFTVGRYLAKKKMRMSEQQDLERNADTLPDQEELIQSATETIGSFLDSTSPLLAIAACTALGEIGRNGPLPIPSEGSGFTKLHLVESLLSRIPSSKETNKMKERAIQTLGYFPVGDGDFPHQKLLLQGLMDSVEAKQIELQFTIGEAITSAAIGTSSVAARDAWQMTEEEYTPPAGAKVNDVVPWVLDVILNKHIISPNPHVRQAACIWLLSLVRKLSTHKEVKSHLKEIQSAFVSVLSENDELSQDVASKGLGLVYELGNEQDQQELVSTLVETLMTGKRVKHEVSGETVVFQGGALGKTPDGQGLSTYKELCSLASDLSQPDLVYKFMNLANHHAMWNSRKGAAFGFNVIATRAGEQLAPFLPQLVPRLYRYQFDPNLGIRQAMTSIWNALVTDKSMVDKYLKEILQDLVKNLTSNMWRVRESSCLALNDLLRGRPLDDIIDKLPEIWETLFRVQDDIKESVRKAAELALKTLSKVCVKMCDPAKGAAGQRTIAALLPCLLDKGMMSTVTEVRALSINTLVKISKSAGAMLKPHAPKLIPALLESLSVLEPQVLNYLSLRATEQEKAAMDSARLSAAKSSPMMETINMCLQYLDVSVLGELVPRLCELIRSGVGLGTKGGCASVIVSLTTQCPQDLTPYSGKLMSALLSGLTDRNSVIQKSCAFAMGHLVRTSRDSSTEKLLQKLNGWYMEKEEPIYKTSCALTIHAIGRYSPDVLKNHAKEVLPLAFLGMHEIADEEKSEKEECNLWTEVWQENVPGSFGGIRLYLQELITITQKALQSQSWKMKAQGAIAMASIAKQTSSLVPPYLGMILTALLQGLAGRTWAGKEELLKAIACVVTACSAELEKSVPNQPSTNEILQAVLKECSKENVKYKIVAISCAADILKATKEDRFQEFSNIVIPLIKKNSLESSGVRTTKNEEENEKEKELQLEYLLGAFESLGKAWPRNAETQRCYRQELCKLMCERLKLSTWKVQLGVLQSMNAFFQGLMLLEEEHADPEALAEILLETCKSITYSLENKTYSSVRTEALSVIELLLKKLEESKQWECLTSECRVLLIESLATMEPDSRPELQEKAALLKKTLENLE
UniProt O43237, whole entry, looked up: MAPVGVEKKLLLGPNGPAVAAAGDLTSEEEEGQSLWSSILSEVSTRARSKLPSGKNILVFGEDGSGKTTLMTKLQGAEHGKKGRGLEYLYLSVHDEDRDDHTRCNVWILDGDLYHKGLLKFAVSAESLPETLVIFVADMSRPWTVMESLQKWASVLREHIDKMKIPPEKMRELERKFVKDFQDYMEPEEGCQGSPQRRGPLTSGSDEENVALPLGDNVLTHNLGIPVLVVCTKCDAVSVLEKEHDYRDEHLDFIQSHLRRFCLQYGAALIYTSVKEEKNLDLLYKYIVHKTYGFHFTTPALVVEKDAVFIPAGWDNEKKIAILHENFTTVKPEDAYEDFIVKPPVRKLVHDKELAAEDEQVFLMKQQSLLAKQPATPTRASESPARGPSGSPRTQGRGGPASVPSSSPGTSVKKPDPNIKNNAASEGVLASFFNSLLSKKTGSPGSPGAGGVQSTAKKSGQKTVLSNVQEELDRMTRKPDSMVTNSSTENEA
UniProt Q99956: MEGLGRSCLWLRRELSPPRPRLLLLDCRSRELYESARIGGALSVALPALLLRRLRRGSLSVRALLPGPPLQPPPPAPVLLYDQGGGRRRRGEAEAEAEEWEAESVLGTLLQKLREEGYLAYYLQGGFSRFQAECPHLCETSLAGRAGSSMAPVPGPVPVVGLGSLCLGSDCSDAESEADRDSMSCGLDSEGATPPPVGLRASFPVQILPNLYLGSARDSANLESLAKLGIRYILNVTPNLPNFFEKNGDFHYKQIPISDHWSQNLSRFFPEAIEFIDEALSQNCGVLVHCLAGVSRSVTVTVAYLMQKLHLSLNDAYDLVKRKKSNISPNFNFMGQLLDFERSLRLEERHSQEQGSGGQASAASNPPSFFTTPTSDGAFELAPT
UniProt Q4LDG9: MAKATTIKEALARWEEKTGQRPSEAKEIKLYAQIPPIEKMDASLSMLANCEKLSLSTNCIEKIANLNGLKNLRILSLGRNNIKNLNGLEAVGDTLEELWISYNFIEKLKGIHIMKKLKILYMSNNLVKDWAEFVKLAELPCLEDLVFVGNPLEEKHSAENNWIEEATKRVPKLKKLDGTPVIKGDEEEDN
UniProt Q96G46: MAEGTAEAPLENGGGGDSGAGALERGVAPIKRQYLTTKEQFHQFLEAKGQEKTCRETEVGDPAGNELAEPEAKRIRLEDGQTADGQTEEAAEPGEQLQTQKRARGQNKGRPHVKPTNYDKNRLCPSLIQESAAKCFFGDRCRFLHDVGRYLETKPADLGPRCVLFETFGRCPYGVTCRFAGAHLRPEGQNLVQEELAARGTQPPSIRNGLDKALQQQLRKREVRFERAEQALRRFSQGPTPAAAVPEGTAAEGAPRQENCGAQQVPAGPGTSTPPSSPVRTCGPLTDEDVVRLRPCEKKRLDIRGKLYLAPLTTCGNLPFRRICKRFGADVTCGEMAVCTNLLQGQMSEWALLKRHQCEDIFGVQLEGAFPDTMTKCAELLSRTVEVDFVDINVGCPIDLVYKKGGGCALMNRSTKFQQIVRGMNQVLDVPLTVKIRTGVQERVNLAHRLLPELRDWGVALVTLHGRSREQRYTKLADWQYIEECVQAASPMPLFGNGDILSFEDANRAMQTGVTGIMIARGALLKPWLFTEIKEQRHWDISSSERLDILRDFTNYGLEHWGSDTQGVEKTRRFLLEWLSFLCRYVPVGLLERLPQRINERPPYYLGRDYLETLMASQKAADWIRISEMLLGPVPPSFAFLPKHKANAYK
UniProt P50570: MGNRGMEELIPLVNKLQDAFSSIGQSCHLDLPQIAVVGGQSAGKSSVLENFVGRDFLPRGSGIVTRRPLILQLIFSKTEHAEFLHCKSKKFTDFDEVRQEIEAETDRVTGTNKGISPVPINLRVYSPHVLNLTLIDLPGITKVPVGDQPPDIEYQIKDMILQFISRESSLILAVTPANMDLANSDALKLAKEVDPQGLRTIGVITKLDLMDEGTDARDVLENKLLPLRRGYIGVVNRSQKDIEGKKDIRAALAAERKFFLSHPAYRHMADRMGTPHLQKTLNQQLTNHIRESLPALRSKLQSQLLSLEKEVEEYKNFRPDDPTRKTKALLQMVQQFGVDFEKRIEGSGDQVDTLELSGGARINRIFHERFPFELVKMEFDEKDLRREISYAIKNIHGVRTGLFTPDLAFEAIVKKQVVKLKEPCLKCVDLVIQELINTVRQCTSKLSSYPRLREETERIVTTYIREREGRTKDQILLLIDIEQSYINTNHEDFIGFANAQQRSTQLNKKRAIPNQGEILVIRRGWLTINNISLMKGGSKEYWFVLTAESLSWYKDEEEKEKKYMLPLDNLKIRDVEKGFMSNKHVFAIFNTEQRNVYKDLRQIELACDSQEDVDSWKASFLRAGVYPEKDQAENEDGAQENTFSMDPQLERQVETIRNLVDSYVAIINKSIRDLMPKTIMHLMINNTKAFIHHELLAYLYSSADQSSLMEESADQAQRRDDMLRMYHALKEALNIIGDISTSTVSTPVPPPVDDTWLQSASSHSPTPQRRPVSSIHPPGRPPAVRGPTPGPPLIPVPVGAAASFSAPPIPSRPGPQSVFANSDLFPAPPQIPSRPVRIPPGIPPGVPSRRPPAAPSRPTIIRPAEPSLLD
UniProt Q8TBM8: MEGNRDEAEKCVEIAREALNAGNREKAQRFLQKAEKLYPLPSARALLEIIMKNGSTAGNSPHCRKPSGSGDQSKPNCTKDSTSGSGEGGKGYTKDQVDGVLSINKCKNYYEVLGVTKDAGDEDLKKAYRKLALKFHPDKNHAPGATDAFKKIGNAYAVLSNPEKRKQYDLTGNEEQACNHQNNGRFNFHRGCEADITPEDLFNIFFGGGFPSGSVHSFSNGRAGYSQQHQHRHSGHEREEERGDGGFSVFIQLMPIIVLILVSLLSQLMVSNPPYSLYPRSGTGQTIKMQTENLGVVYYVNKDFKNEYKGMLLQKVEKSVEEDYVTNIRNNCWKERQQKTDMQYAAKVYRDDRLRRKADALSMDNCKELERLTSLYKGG
UniProt O95147: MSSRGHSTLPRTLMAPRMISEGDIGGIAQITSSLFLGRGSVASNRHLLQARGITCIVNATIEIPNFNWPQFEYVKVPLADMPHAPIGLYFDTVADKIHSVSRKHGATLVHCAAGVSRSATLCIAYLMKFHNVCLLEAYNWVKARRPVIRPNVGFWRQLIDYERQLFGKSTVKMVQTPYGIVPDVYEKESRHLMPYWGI
UniProt Q9BV94: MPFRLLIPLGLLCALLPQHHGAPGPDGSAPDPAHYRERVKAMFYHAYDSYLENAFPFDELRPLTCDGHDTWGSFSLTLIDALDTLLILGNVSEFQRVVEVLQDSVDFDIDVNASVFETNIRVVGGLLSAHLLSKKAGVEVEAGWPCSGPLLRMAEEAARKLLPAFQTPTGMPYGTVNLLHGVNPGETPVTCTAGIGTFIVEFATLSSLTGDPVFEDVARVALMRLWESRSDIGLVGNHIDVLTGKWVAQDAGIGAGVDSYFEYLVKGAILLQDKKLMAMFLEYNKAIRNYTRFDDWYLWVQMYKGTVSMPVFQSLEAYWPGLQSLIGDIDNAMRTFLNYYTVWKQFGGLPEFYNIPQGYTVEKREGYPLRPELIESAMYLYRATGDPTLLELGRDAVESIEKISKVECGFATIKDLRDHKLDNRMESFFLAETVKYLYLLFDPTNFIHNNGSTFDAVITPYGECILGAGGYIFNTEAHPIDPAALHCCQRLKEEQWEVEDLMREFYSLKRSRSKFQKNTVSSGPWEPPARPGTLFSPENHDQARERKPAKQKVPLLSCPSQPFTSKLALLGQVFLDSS
UniProt Q6P3W2: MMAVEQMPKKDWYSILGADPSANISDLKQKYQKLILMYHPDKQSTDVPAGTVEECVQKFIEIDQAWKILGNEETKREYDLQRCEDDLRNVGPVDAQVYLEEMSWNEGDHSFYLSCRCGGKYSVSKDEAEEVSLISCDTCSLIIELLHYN

Compound in one assay: COC(=O)[C@H](CCSC)NC(=O)C1=C(C=C(C=C1)NC[C@H](CS)N)C2=CC=CC=C2
As to the kind of experiment: log2 fold change, soluble protein after heating vs DMSO (PISA); higher = thermal stabilisation; K562 cells, 10 uM, 30 min; active = over 0.2 and 3.5 SD of the protein, either way, in both replicates (recomputed). In short, it runs like this: (§1)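 K562 cells at 2×10^6 cells/mL were treated for 30 min with 10 μM compound, and aliquots were heated for 3 min over 48°C-58°C before pooling. Extraction used PBS with 0.5% NP-40 at 4°C, and soluble protein was the supernatant after 21,000xg for 90 min, measured by TMTpro 16plex LC-MS/MS with channel sums equalised. Thermal stability values, relative to control samples and from duplicates, are log2 fold changes.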
For DNAJC1 (UniProt Q96KC8), the log2 fold change was inactive: 0.005.
With DXO (UniProt O77932), the log2 fold change was inactive: 0.069.
The same measure, in the same setting: the value for DNAJB1 (UniProt P25685) was inactive: -0.017.
On the same count and under the same terms, the value for DSTYK (UniProt Q6XUX3) was inactive: -0.117; that for EARS2 isoform 2 (UniProt Q5JPH6) was inactive: -0.074.
Same read-out and setting: to ECPAS (UniProt Q5VYK3) belongs inactive: -0.045.
For DPYSL3 isoform 2 (UniProt Q14195), the log2 fold change was inactive: -0.114.
The same measure, in the same setting: to DNPEP (UniProt C9JBE1) belongs inactive: 0.053.
On the same count and under the same terms, to DYNC1LI2 (UniProt O43237) belongs inactive: 0.016; to DUSP9 (UniProt Q99956), inactive: -0.051.
For DOCK8 (UniProt Q8NF50), the log2 fold change is inactive: -0.154.
On the same count and under the same terms, to DTYMK (UniProt P23919) belongs inactive: 0.013; to DOK1 (UniProt Q99704), inactive: 0.06.
Same read-out and setting: the value for DNAL1 (UniProt Q4LDG9) was inactive: -0.13; that for DUS3L (UniProt Q96G46) was inactive: 0.003.
The same measure, in the same setting: to DNM2 (UniProt P50570) belongs inactive: -0.03; to DYRK1A isoform 2 (UniProt Q13627), inactive: -0.021.
DYNC1I2 isoform 5 (UniProt Q13409): the log2 fold change was inactive: 0.028.
On the same count and under the same terms, to DTNBP1 (UniProt Q96EV8) belongs inactive: 0.054.
In the case of DNAJB14 (UniProt Q8TBM8), the log2 fold change is inactive: -0.078.
The same measure, in the same setting: to EEA1 (UniProt Q15075) belongs inactive: 0.007.
As to DPH5 isoform 5 (UniProt Q9H2P9), the log2 fold change was inactive: 0.004.
As to DUSP14 (UniProt O95147), the log2 fold change is inactive: -0.06.
Consider DNAJC5 (UniProt Q9H3Z4), for which the log2 fold change was inactive: -0.022.
DNAJB14 (UniProt H7C494): the log2 fold change is inactive: 0.079.
On the same count and under the same terms, the value for EDEM2 (UniProt Q9BV94) was inactive: 0.105; that for EBNA1BP2 (UniProt Q99848) was inactive: 0.086; that for DNAJC24 (UniProt Q6P3W2) was inactive: 0.099.

Compound in the next assay: COC1=CC=C(C=C1)CN2C=CC3=C2C=C(C=C3)C(=O)NO
The description is as above. In short, it runs like this:
as §1
DNAJC1 (UniProt Q96KC8): the log2 fold change was inactive: -0.023.
The same measure, in the same setting: the value for DXO (UniProt O77932) was inactive: 0.036; that for DNAJB1 (UniProt P25685) was inactive: 0.07.
The same measure, in the same setting: the value for EARS2 isoform 2 (UniProt Q5JPH6) was inactive: -0.068; that for ECPAS (UniProt Q5VYK3) was inactive: 0.004; that for DNPEP (UniProt C9JBE1) was inactive: -0.296.
The same measure, in the same setting: the value for DYNC1LI2 (UniProt O43237) was inactive: -0.19.
On to DNM2 isoform 4 (UniProt P50570), for which the log2 fold change is inactive: 0.455.
Still for that read-out and setting: the value for DUSP9 (UniProt Q99956) was inactive: -0.036.
Still for that read-out and setting: to DOCK8 (UniProt Q8NF50) belongs inactive: 0.475.
In the case of DTYMK (UniProt P23919), the log2 fold change was inactive: -0.043.
As to DOK1 (UniProt Q99704), the log2 fold change was inactive: -0.476.
Still for that read-out and setting: to DNAL1 (UniProt Q4LDG9) belongs inactive: 0.009; to DUS3L (UniProt Q96G46), inactive: 0.069; to DNM2 (UniProt P50570), inactive: -0.022.
Still for that read-out and setting: the value for DYRK1A isoform 2 (UniProt Q13627) was inactive: -0.061.
Still for that read-out and setting: the value for DYNC1I2 isoform 5 (UniProt Q13409) was inactive: 0.012.
Consider DTNBP1 (UniProt Q96EV8), for which the log2 fold change is inactive: -0.033.
On the same count and under the same terms, to DNAJB14 (UniProt Q8TBM8) belongs inactive: -0.056; to EEA1 (UniProt Q15075), inactive: 0.041.
For the target DPH5 isoform 5 (UniProt Q9H2P9), the log2 fold change was inactive: -0.01.
Regarding DNAJC5 (UniProt Q9H3Z4), the log2 fold change is inactive: 0.01.
The same measure, in the same setting: to DNAJB14 (UniProt H7C494) belongs inactive: -0.182; to EDEM2 (UniProt Q9BV94), inactive: -0.149.
For EBNA1BP2 (UniProt Q99848), the log2 fold change is inactive: -0.054.
On the same count and under the same terms, the value for DNAJC24 (UniProt Q6P3W2) was inactive: -0.06.

The record behind these values is the supplement of paper PMC10849652.
